Experimental data reported in patent US10011814B2, “Salt formulations for the fermentation of marine microorganisms” (Triphase Research and Development I Corp., priority 2006, dated 2018).

Test system: Salinispora tropica NPS021184
Assay: Production of Salinosporamide A and analogs in shake flask or tube culture; titers by HPLC of EtOAc extract
Conditions: for Max Titers: Ex.1 Table 2; for Max Avg Titer / relative to Sal A (%): Ex.2 Table 3; for Max Avg Titer: 52 μg/L in production medium
Experimental: Seed cultures were prepared by inoculating frozen stock of Salinispora tropica NPS021184 into seed medium.
The first seed cultures (either 10 mL medium in a 50-mL tube or 100 mL medium in a 500-mL Erlenmeyer flask) were incubated for 3 to 4 days before inoculating into the second seed media with the same composition as the first seed cultures. The second seed cultures (100 mL medium in a 500-mL Erlenmeyer flask) were incubated for two days before inoculating into the production medium (100 mL medium in a 500-mL Erlenmeyer flask).
The chemically defined salt formulation included: […]
3.5 mL of the fermentation culture was mixed with equal volume of EtOAc in an extraction tube to extract the various metabolites from the production culture. The mixture was shaken on a shaker for one hr. An aliquot of the extract (1 mL) was removed and dried under a stream of nitrogen. The dried extract was stored at −20° C. freezer before HPLC analysis. The dried extract was resuspended in 320 μL DMSO and injected into HPLC using the 00TF14 method for analysis.
The production of Salinosporamide A, NPI-0047 and NPI-2065 was monitored by Agilent HP1100 HPLC using an ACE C-18 reversed-phase column (4.6×150 mm), and solvent system consisting of water (0.01% TFA) as solvent A and acetonitrile (0.01% TFA) as solvent B. The elution was started at 100% solvent A for 1 min, 100% solvent A to 35% solvent A gradient in 7 min, held at 35% solvent A for 11 min, 35% solvent A to 100% solvent B in 8 min and held at 100% solvent B for 9 min at a flow rate of 1.5 mL/min with the detector wavelength set at 210 nm and column temperature 35° C.
The first seed cultures (either 10 mL medium in a 50-mL tube or 100 ml medium in a 500-ml Erlenmeyer flask) were incubated for 3 to 4 days before inoculating into the second seed media with the same composition as the first seed cultures. The second seed cultures (100 mL medium in a 500-mL Erlenmeyer flask) were incubated for two days before inoculating into the production medium (100 mL medium in a 500-mL Erlenmeyer flask).
The first seed cultures (either 10 mL medium in a 50-ml tube or 100 mL medium in a 500-mL Erlenmeyer flask) were incubated for 3 to 4 days before inoculating into the second seed media with the same composition as the first seed cultures. The second seed cultures (100 mL medium in a 500-mL Erlenmeyer flask) were incubated for two days before inoculating into production medium (100 mL medium in a 500-mL Erlenmeyer flask).
3.5 mL of the fermentation culture was mixed with equal volume of EtOAc in an extraction tube to extract the various metabolites from the production culture. The mixture was shaken for 1 hr. An aliquot of the extract (1 mL) was removed and dried under a stream of nitrogen. The dried extract was stored at −20° C. freezer before HPLC analysis. The dried extract was resuspended in […] DMSO and injected into HPLC using the TFS7 method for analysis.
The production of Salinosporamide A, NPI-0047 and NPI-2065 was monitored by Agilent HP1100 HPLC using an ACE C-18 reversed-phase column (4.6×150 mm), and isocratic solvent system consisting of 67% water (0.01% TFA) and 33% acetonitrile (0.01% TFA). The flow rate was 1.5 mL/min for 15 min with the detector wavelength set at 210 nm and column temperature 35° C.
3.5 mL of the fermentation culture was mixed with equal volume of EtOAc in an extraction tube to extract the various metabolites from the production culture. The mixture was shaken on the shaker for 1 hr. An aliquot of the extract (1 mL) was removed and dried under a stream of nitrogen. The dried extract was stored at −20° C. freezer before HPLC analysis. The dried extract was resuspended in 320 μL DMSO and injected into HPLC using the TFS7 method for analysis. […]

C[C@@]12OC(=O)[C@]1([C@@H](O)[C@@H]1C=CCCC1)NC(=O)[C@H]2CCCl [NPI-2065]
Titers (maximum concentrations) (BAS.PD + 0.1% Valeric acid): 2.9 mg/L
Maximum Titer (Ex.1 Table 1, shake flask, 104 μg/L CoCl2·6H2O in production medium): 6.1 mg/L
Maximum Titer (Ex.1 Table 1, shake flask, 1.04 mg/L CoCl2·6H2O in production medium): 6.8 mg/L
Maximum Titer (Ex.1 Table 1, shake flask, 10.4 mg/L CoCl2·6H2O in production medium): 5.3 mg/L
Maximum Titer (Ex.1 Table 1, shake flask, no CoCl2·6H2O addition to production medium): 7.7 mg/L
Max Titers (2.6 μg/L CoCl2·6H2O in production medium): 6.1 mg/L
Max Titers (5.2 μg/L CoCl2·6H2O in production medium): 6.5 mg/L
Max Titers (6.5 μg/L CoCl2·6H2O in production medium): 6.2 mg/L
Max Titers (13 μg/L CoCl2·6H2O in production medium): 6.5 mg/L
Max Titers (26 μg/L CoCl2·6H2O in production medium): 6.8 mg/L
Max Titers (52 μg/L CoCl2·6H2O in production medium): 6.3 mg/L
Max Titers (104 μg/L CoCl2·6H2O in production medium): 6.5 mg/L
Max Titers (208 μg/L CoCl2·6H2O in production medium): 6.2 mg/L
Max Titers (416 μg/L CoCl2·6H2O in production medium): 5.6 mg/L
Max Titers (shake flask, control, no CoCl2·6H2O in production medium): 6.6 mg/L
Max Avg Titer (CoCl2·6H2O in seed medium 0 μg/L): 6.5 mg/L
Max Avg Titer (CoCl2·6H2O in seed medium 2.6 μg/L): 6.6 mg/L
Max Avg Titer (CoCl2·6H2O in seed medium 5.2 μg/L): 6.8 mg/L
Max Avg Titer (CoCl2·6H2O in seed medium 13 μg/L): 6.9 mg/L
Max Avg Titer (CoCl2·6H2O in seed medium 26 μg/L): 8.4 mg/L
Max Avg Titer (CoCl2·6H2O in seed medium 52 μg/L): 7.9 mg/L
Max Avg Titer (CoCl2·6H2O in seed medium 104 μg/L): 7.7 mg/L
Max Avg Titer (CoCl2·6H2O in seed medium 208 μg/L): 8.1 mg/L
Max Avg Titer (CoCl2·6H2O in seed medium 416 μg/L): 6.9 mg/L
relative to Sal A (%) (seed CoCl2·6H2O 0 μg/L): 2.2%
relative to Sal A (%) (seed CoCl2·6H2O 2.6 μg/L): 2.2%
relative to Sal A (%) (seed CoCl2·6H2O 5.2 μg/L): 2.2%
relative to Sal A (%) (seed CoCl2·6H2O 13 μg/L): 2.3%
relative to Sal A (%) (seed CoCl2·6H2O 26 μg/L): 2.3%
relative to Sal A (%) (seed CoCl2·6H2O 52 μg/L): 2.4%
relative to Sal A (%) (seed CoCl2·6H2O 104 μg/L): 2.2%
relative to Sal A (%) (seed CoCl2·6H2O 208 μg/L): 2.2%
relative to Sal A (%) (seed CoCl2·6H2O 416 μg/L): 2.2%
Titer (Ex.4 Table 9, Chemically Defined Salt Formulation + Na2SO4 + 52 μg/L CoCl2·6H2O (Medium Lo.Maz, low chloride)): 3.4 mg/L
Titer (Ex.4 Table 9, Chemically Defined Salt Formulation + NaCl + 52 μg/L CoCl2·6H2O, average of two experiments): 5.2* mg/L
Titer (Ex.4 Table 9, production medium with INSTANT OCEAN): 7.8 mg/L
Titer (Ex.4 Table 9, production medium: Chemically Defined Salt Formulation + NaCl): 7.7 mg/L
Titer (Ex.5 Table 12, seed Lo.BNA, production SHY.KcMC, 16 mM sodium by ICP-MS, culture age 3 days): 0.9 mg/L
Titer (Ex.5 Table 12, seed Lo.BNA, production SHY.KcMC, 16 mM sodium by ICP-MS, culture age 4 days): 2.5 mg/L
Titer (Ex.5 Table 12, seed Lo.BNA, production SHY.KcMC, 16 mM sodium by ICP-MS, culture age 5 days): 3.5 mg/L
Titer (Ex.5 Table 12, seed Lo.BNA, production SHY.KcMC, 16 mM sodium by ICP-MS, culture age 6 days): 4.0 mg/L
Titers (Ex.6 Table 13, washed cells, seed A1.Kc4C, production SHY.KcMC, 11 mM sodium by ICP-MS, culture age 3 days): 0.7 mg/L
Titers (Ex.6 Table 13, washed cells, seed A1.Kc4C, production SHY.KcMC, 11 mM sodium by ICP-MS, culture age 4 days): 1.0 mg/L
Titers (Ex.6 Table 13, washed cells, seed A1.Kc4C, production SHY.KcMC, 11 mM sodium by ICP-MS, culture age 5 days): 1.8 mg/L
Titers (Ex.6 Table 13, washed cells, seed A1.Kc4C, production SHY.KcMC, 11 mM sodium by ICP-MS, culture age 6 days): 2.1 mg/L
Titers (Ex.8 Table 16, seed SHY.KCD, production SHY.KcMC, 11 mM sodium by ICP-MS, culture age 3 days): 0.4 mg/L
Titers (Ex.8 Table 16, seed SHY.KCD, production SHY.KcMC, 11 mM sodium by ICP-MS, culture age 4 days): 2.4 mg/L
Titers (Ex.8 Table 16, seed SHY.KCD, production SHY.KcMC, 11 mM sodium by ICP-MS, culture age 5 days): 2.8 mg/L
Titers (Ex.8 Table 16, seed SHY.KCD, production SHY.KcMC, 11 mM sodium by ICP-MS, culture age 6 days): 3.7 mg/L
Titers (INSTANT OCEAN-based media, day 4, condition 1 (Control): seed no cobalt addition, production no cobalt addition): 7.3 mg/L
Titers (INSTANT OCEAN-based media, day 4, condition 2: seed no cobalt addition, production +13 μg/L CoCl2•6H2O): 6.9 mg/L
Titers (INSTANT OCEAN-based media, day 4, condition 3: seed no cobalt addition, production +52 μg/L CoCl2•6H2O): 5.7 mg/L
Titers (INSTANT OCEAN-based media, day 4, condition 4: seed no cobalt addition, production +208 μg/L CoCl2•6H2O): 6.0 mg/L
Titers (INSTANT OCEAN-based media, day 4, condition 5: seed +52 μg/L CoCl2•6H2O, production no cobalt addition): 6.2 mg/L
Titers (INSTANT OCEAN-based media, day 4, condition 6: seed +52 μg/L, production +13 μg/L CoCl2•6H2O): 5.8 mg/L
Titers (INSTANT OCEAN-based media, day 4, condition 7: seed +52 μg/L, production +52 μg/L CoCl2•6H2O): 5.7 mg/L
Titers (INSTANT OCEAN-based media, day 4, condition 8: seed +5 μg/L, production +208 μg/L CoCl2•6H2O): 5.9 mg/L
Titers (INSTANT OCEAN-based media, day 4, condition 9: seed +208 μg/L CoCl2•6H2O, production no cobalt addition): 6.4 mg/L
Titers (INSTANT OCEAN-based media, day 4, condition 10: seed +208 μg/L, production +13 μg/L CoCl2•6H2O): 6.1 mg/L
Titers (INSTANT OCEAN-based media, day 4, condition 11: seed +208 μg/L, production +52 μg/L CoCl2•6H2O): 6.5 mg/L
Titers (INSTANT OCEAN-based media, day 4, condition 12: seed +208 μg/L, production +208 μg/L CoCl2•6H2O): 6.1 mg/L
Maximum Titer (Instant Ocean based media, 0x Vitamin B12: seed 0, production 0): 6.3 mg/L
Maximum Titer (Instant Ocean based media, 1x Vitamin B12: seed and production 0.296 mg/L (0.22 μM)): 4.9 mg/L
Maximum Titer (Instant Ocean based media, 1x vitamin B12P: seed 0, production 0.296 mg/L (0.22 μM) Vitamin B12): 4.4 mg/L
Maximum Titer (Instant Ocean based media, 4x Vitamin B12: seed and production 1.185 mg/L (0.88 μM)): 5.4 mg/L
Maximum Titer (Instant Ocean based media, 10x Vitamin B12: seed and production 2.96 mg/L (2.2 μM)): 4.9 mg/L
Titers (maximum concentrations) (LoCl.PD + 0.1% Valeric acid): 1.5 mg/L
Titer (NPS21184, production medium with salt formulation, NaCl 0 g/L): 0 mg/L
Titer (NPS21184, production medium with salt formulation, NaCl 5 g/L): 0 mg/L
Titer (NPS21184, production medium with salt formulation, NaCl 10 g/L): 3.9 mg/L
Titer (NPS21184, production medium with salt formulation, NaCl 15 g/L): 6.2 mg/L
Titer (NPS21184, production medium with salt formulation, NaCl 20 g/L): 6.2 mg/L
Titer (NPS21184, production medium with salt formulation, NaCl 24 g/L): 6.2 mg/L
Titer (NPS21184, production medium with salt formulation, NaCl 30 g/L): 4.2 mg/L
Maximum Titer (defined salt formulation based media, 1× CoCl2•6H2O: seed and production 52 μ/L (0.22 μM) CoCl2•6H2O): 6.6 mg/L
Maximum Titer (defined salt formulation based media, 1× vitamin B12: seed and production 0.296 mg/L (0.22 μM) Vitamin B12): 7.2 mg/L
Maximum Titer (defined salt formulation based media, Control: no vitamin B12 or cobalt supplement): 5.6 mg/L
Titers (maximum concentrations) (low chloride production medium LoCl.PD, no valeric acid): 0.99 mg/L
Titers (maximum concentrations) (saline production medium BAS.PD, no valeric acid): 5.5 mg/L

Marks after values point to notes of the source that are not given here.
